PubChem BioAssay AID1671190 (National Center for Advancing Translational Sciences (NCATS), 2021)
“And” between values parts separate entries of the source, which are not always exact repeats. Equal values may be shown once. The whole screen tested about 580,000 compounds, of which about 6,100 (1.1%) were called active. The inconclusive results got no clear call from the source; some entries with a clear call stand among them for comparison. Calls follow the shape of the dose curve; as a rule, active = well fitted inhibition curve with a large enough effect; inconclusive = small, poorly fitted or top-dose-only effect, or another doubt; inactive = no such curve, though single readings can be large or run the other way. Potencies of inconclusive entries are doubtful fits and often do not repeat.

Protein sequences, listed by entry. Tags and fused reporters are not part of them. Lines headed by an entry give the natural chain unless they say otherwise; changes in a name come on top.
UniProt P18054: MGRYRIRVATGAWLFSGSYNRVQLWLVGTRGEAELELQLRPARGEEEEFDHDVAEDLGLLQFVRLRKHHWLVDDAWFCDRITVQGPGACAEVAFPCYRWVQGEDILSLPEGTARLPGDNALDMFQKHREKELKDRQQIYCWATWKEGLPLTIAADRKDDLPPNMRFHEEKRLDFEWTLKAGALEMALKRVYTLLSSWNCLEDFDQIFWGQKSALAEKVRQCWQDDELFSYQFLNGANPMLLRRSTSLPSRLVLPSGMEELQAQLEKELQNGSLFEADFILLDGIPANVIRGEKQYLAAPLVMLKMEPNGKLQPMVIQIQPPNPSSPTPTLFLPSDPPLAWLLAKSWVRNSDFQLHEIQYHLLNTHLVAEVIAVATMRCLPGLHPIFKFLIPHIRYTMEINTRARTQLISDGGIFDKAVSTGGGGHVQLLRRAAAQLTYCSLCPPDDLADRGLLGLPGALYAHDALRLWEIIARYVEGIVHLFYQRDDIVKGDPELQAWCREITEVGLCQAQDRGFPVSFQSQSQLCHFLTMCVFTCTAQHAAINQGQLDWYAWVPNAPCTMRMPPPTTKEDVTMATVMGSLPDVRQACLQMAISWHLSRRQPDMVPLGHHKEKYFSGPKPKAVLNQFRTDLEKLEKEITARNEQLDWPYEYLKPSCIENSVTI

These compounds were tested against Polyunsaturated fatty acid lipoxygenase ALOX12 (Homo sapiens) (UniProt P18054) (assay: Primary qHTS assay for inhibitors of human arachidonate 12S-lipoxygenase (ALOX12): Round 2). Conditions: purified 12hLO, xylenol orange hydroperoxide absorbance; activity change, negative = inhibition: at 108 µM (top of the series) unless noted.
Method in brief: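 Hydroperoxide product was detected by ferrous iron/xylenol orange as the 573 to 405 nm absorbance ratio. Arachidonic acid at 40 uM (final) was turned over for 30 min at room temperature by 150 nM human 12hLO, pH 7.0 Hepes buffer, after 15 min compound preincubation.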
% is scaled to controls: 0 for no effect and ±100 for the full control effect; potency is read from the fitted curve at half-maximal effect.

| Compound | Potency | activity change, negative = inhibition |
| --- | --- | --- |
| Cc1ccc(C)c(N2N=C(C(=O)Nc3nccs3)CCC2=O)c1 | inconclusive: 100 µM [inhibitor, partial curve, poor fit] |  |
| COc1cc(/C=C(/C#N)c2ccc(Cl)cc2)ccc1OC(C)C |  | inactive: -2.49% |
| COc1ccc(NC(=O)CN(c2ccc(OC)cc2)S(=O)(=O)c2c(C)nn(C)c2C)cc1 | inconclusive: 44.7 µM [inhibitor, partial curve, poor fit] |  |
| O=C(C1CCCC1)N1CCC(n2cnnc2C2CC2)CC1 |  | inactive: 11.6% |
| O=C(/C=C/c1ccccc1)C1=C(O)C(=O)N(CCO)C1c1cccc([N+](=O)[O-])c1 (stereo not given) | active: 22.4 µM |  |
| Cc1cccc(-c2cnc3n[nH]c(-c4ccccc4)c3n2)c1 |  | inactive: 27.7% [at 176 µM] |
| O=C(Nc1ccccc1)N1CCN(Cc2ccccc2)CC1 | inconclusive: 1.78 µM [inhibitor, full curve, poor fit] |  |
| COc1cc(C2Nc3ccccc3C(=O)N2NS(C)(=O)=O)c([N+](=O)[O-])cc1OC (stereo not given) | inconclusive: 28.2 µM [inhibitor, partial curve, poor fit] |  |
| O=C(CCCc1nc2ccccc2o1)NCc1ccccc1Cl |  | inactive: 23.8% |
| CC(=O)c1c(N2CCN(c3ccccc3)CC2)nc(=S)n(-c2ccccc2)c1C | inconclusive: 35.5 µM [inhibitor, partial curve, poor fit] |  |
| Cc1ccc2c(CN3CCc4cc(S(N)(=O)=O)ccc43)cc(=O)oc2c1C | inconclusive: 56.2 µM [inhibitor, single point] |  |
| CC(=O)Nc1ccc(Oc2cc(N)cc([N+](=O)[O-])c2)cc1 | inconclusive: 112 µM [inhibitor, partial curve, poor fit] |  |
| N#C/C(=C/c1cn(-c2ccccc2)nc1-c1cccc(S(=O)(=O)N2CCCC2)c1)C(=O)NCc1ccco1 | inconclusive: 79.4 µM [inhibitor, partial curve, poor fit] |  |
| O=C(Nc1ccc(F)c(F)c1F)c1ccc2ccccc2n1 | inconclusive: 35.5 µM [inhibitor, partial curve, poor fit] |  |
| N#Cc1ccccc1OCC(=O)OCC(=O)c1ccc2c(c1)NC(=O)CO2 | inconclusive: 17.8 µM [inhibitor, partial curve, poor fit] |  |
| COc1cc(C(=O)OCc2ccc(C#N)cc2)cc(OC)c1OC | inconclusive: 1 µM [inhibitor, full curve, poor fit] |  |
| Cc1c(C(=O)N2CCC[C@H]2C(N)=O)oc2c(F)cccc12 | inconclusive: 79.4 µM [inhibitor, single point] |  |

Of the compounds above, these have a Cl atom:

| Compound | Potency | activity change, negative = inhibition |
| --- | --- | --- |
| COc1cc(/C=C(/C#N)c2ccc(Cl)cc2)ccc1OC(C)C |  | inactive: -2.49% |
| O=C(CCCc1nc2ccccc2o1)NCc1ccccc1Cl |  | inactive: 23.8% |

Carrying on:

| Compound | Potency | activity change, negative = inhibition |
| --- | --- | --- |
| Cc1nn(C)c(C)c1-c1cc(C(=O)O)c2ccccc2n1 | inconclusive: 28.2 µM [inhibitor, partial curve, poor fit] |  |
| Cc1onc(-c2c(F)cccc2Cl)c1C(=O)Nc1sc2c(c1C#N)CCC(C(C)(C)C)C2 (stereo not given) | inconclusive: 112 µM [inhibitor, single point] |  |
| O=C(CCSCc1ccccc1Cl)N1CCN(c2cccc(Cl)c2)CC1 | inactive and inconclusive: 39.8 µM [inhibitor, partial curve, poor fit] |  |
| CC(=O)OC(COc1ccccc1)Cn1cnc2cc(C)c(C)cc21 (stereo not given) | inconclusive: 89.1 µM [inhibitor, partial curve, poor fit] | inconclusive: -36.7% [inhibitor] |
| CC(C)c1nc(C(=O)N2CCC(CCC(=O)Nc3ccc4c(c3)OCCO4)CC2)cs1 |  | inactive: -2.6% |
| O=C(CCC1CCCC1)OCC(=O)c1ccc2c(c1)OCO2 | inconclusive: 50.1 µM [inhibitor, partial curve, poor fit] |  |
| CCCCCCCCS(=O)(=O)CCSCCO |  | inactive: -0.219% |
| C/C(Cn1nc([N+](=O)[O-])cc1C)=N\NC(=O)c1cccc(Br)c1 | inconclusive: 3.98 µM [inhibitor, full curve, poor fit] |  |
| C=CCn1c(-c2ccc3[nH]c(C)c(C)c3c2)n[nH]c1=S | inconclusive: 4.47 µM [inhibitor, full curve, poor fit] |  |
| O=C(CSc1nc2ccccc2s1)N/N=C/c1cc([N+](=O)[O-])ccc1O | inconclusive: 3.55 µM [inhibitor, full curve, poor fit] |  |
| CC(=O)c1cc2c(cc1NC(=O)c1cccc(F)c1)OCCO2 | inconclusive: 100 µM [inhibitor, single point] |  |
| Cc1nc(N[C@@H](Cc2ccccc2)C(=O)O)c2oc3ccccc3c2n1 |  | inactive: -4.46% |
| O=C(COc1ccccc1F)Nc1ccc(S(=O)(=O)Nc2nccs2)cc1 | inconclusive: 89.1 µM [inhibitor, single point] |  |
| O=[N+]([O-])c1ccc(SCCc2ccccn2)cc1 | inconclusive: 31.6 µM [inhibitor, partial curve, poor fit] |  |
| COc1ccc(C(=O)Cn2c(=N)n(C)c3ccccc32)cc1 | inconclusive: 12.6 µM [inhibitor, partial curve, poor fit] |  |
| Cc1noc(C)c1-c1ccc(C(=O)N2CCN(C)CC2)c2occc12 | inconclusive: 35.5 µM [inhibitor, single point] |  |
